Protein sequences, listed by entry. Tags and fused reporters are not part of them. Lines headed by an entry give the natural chain unless they say otherwise; changes in a name come on top.
UniProt Q6R327, whole entry, looked up: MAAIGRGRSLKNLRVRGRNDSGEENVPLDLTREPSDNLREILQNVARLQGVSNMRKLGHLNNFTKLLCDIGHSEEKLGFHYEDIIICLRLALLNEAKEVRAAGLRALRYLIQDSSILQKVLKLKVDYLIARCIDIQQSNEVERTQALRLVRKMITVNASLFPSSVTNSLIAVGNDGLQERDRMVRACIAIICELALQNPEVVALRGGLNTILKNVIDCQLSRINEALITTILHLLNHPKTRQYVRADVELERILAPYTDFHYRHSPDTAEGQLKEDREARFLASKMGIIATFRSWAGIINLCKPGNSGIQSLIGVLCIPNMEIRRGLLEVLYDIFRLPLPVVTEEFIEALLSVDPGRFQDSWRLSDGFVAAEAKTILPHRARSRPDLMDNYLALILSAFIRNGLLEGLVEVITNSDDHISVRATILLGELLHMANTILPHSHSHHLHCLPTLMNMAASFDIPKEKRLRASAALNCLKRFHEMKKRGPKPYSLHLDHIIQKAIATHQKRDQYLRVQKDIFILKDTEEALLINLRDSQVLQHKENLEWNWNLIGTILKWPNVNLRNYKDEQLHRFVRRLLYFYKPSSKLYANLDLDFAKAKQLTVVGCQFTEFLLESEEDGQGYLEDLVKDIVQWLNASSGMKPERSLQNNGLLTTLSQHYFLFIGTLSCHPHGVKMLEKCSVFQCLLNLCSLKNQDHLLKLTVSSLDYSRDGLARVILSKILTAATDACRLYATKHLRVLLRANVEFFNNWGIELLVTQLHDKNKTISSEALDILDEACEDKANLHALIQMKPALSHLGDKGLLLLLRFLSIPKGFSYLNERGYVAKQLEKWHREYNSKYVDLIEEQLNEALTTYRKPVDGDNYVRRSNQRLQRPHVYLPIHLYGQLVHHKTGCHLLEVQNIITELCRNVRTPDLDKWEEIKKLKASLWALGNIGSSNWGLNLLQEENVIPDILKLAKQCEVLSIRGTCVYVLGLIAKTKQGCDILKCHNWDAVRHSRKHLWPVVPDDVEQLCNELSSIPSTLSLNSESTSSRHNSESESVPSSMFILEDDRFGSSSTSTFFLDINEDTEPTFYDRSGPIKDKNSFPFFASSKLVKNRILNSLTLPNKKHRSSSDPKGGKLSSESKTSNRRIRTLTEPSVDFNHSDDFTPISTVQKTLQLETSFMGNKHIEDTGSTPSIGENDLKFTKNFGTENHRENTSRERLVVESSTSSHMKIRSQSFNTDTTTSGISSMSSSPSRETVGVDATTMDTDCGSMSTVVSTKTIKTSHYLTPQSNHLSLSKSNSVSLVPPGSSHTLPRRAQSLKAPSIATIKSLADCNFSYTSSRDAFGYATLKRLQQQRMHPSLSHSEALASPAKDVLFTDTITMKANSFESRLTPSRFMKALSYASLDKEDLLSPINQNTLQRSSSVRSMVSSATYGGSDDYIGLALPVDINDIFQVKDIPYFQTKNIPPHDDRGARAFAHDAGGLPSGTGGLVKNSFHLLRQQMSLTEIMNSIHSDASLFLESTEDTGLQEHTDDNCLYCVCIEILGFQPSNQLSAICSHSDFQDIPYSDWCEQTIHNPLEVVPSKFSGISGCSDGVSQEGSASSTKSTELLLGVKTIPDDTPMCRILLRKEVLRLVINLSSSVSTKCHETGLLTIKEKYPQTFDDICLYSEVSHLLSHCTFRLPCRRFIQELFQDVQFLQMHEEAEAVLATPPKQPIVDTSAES
UniProt Q9NVW2: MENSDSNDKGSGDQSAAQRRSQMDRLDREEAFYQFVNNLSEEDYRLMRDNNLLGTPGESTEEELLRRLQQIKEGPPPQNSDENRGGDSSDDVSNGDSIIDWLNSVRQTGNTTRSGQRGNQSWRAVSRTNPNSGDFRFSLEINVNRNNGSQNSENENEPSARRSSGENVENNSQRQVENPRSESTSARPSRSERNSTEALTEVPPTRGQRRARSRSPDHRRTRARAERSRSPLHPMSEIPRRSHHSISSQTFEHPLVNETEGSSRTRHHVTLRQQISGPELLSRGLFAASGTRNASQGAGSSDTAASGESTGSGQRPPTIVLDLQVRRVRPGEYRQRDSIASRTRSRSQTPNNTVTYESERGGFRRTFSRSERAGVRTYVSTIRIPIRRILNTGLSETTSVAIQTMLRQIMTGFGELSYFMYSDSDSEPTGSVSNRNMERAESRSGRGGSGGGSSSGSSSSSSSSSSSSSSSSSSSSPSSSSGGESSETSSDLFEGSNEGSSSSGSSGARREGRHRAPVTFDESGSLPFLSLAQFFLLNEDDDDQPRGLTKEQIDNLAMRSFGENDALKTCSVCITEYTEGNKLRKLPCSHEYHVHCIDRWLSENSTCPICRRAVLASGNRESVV
UniProt O14593: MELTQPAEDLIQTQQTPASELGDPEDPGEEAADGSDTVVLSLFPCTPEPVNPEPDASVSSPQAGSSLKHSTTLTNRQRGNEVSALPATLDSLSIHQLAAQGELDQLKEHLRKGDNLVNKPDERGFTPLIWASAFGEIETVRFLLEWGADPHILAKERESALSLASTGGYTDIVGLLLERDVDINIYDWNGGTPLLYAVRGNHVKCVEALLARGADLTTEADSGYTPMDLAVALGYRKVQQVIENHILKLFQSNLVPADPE
UniProt Q8NCN4: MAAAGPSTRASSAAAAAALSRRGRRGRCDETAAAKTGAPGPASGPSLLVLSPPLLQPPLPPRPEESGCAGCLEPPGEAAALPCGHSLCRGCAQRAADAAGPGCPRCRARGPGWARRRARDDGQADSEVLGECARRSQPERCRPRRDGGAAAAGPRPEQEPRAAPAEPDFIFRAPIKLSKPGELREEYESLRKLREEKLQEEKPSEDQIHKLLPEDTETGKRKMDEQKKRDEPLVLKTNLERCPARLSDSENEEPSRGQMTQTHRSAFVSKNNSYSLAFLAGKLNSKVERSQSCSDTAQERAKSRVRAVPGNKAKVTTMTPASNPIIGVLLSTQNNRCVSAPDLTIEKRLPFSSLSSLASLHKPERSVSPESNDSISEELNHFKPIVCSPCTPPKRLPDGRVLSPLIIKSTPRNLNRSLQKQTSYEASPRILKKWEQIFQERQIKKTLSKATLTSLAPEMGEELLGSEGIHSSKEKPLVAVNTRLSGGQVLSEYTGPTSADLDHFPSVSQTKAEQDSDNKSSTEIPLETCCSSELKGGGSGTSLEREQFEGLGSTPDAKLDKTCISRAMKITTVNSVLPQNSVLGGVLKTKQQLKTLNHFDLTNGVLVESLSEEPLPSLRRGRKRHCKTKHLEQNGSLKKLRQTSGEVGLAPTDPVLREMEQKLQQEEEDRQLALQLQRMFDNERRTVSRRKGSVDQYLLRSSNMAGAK
UniProt Q9Y256: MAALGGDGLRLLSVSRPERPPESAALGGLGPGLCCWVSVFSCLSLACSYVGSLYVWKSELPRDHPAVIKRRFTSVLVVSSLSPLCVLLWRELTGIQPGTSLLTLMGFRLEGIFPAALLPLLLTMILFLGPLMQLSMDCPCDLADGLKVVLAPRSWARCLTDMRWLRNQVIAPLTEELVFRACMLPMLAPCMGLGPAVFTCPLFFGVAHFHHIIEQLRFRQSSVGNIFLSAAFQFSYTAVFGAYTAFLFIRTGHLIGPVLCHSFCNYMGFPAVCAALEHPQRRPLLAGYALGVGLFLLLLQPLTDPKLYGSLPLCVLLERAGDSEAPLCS
UniProt Q96K19: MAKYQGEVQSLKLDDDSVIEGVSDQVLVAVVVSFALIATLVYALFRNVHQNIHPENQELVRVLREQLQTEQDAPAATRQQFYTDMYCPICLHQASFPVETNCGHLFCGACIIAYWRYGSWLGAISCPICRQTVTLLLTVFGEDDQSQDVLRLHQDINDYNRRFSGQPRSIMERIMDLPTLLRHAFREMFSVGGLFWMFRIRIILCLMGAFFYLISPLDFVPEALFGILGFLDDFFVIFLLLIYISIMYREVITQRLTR
UniProt Q9Y225: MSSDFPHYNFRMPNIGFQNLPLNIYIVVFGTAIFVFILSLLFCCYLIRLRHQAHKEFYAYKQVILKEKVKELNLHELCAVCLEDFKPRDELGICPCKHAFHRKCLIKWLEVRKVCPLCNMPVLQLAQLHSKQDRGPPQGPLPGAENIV
UniProt Q6NUQ1: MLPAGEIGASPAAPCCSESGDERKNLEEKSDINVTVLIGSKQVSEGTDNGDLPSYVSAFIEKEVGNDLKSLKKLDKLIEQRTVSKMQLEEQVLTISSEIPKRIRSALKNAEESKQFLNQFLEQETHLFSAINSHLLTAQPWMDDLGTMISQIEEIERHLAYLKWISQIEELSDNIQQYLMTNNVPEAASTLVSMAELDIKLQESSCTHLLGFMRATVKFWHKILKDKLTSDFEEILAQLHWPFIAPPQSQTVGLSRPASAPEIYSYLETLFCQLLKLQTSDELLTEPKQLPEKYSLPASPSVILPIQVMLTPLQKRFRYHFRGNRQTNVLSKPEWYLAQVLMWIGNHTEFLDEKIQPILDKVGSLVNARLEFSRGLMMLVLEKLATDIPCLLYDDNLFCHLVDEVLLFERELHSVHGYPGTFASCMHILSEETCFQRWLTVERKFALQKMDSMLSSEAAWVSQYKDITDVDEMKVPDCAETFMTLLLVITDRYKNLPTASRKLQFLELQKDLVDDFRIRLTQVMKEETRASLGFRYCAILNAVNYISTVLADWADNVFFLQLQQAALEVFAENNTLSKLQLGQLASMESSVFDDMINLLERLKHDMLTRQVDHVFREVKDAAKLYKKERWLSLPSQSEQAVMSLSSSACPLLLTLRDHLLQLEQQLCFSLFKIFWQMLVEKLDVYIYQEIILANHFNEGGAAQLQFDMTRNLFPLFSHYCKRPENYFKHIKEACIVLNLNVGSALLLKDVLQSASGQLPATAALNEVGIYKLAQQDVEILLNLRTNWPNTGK
UniProt Q6NTF9: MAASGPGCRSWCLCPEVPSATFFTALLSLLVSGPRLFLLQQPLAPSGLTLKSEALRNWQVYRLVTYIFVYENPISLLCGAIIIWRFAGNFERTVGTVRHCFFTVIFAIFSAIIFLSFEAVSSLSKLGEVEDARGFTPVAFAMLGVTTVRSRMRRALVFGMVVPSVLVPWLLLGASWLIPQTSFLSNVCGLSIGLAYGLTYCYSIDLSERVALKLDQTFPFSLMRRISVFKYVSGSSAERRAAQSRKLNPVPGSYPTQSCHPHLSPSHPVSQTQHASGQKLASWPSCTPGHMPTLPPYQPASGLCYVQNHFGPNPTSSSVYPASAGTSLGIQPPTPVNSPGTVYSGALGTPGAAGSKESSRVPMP
UniProt Q96A37: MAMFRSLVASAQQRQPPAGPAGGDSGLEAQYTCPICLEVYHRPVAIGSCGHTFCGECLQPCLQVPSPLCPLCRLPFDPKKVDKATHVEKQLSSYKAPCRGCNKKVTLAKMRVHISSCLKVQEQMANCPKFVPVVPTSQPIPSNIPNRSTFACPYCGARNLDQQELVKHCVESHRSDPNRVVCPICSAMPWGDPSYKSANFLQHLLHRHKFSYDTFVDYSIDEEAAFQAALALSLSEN
UniProt P35251: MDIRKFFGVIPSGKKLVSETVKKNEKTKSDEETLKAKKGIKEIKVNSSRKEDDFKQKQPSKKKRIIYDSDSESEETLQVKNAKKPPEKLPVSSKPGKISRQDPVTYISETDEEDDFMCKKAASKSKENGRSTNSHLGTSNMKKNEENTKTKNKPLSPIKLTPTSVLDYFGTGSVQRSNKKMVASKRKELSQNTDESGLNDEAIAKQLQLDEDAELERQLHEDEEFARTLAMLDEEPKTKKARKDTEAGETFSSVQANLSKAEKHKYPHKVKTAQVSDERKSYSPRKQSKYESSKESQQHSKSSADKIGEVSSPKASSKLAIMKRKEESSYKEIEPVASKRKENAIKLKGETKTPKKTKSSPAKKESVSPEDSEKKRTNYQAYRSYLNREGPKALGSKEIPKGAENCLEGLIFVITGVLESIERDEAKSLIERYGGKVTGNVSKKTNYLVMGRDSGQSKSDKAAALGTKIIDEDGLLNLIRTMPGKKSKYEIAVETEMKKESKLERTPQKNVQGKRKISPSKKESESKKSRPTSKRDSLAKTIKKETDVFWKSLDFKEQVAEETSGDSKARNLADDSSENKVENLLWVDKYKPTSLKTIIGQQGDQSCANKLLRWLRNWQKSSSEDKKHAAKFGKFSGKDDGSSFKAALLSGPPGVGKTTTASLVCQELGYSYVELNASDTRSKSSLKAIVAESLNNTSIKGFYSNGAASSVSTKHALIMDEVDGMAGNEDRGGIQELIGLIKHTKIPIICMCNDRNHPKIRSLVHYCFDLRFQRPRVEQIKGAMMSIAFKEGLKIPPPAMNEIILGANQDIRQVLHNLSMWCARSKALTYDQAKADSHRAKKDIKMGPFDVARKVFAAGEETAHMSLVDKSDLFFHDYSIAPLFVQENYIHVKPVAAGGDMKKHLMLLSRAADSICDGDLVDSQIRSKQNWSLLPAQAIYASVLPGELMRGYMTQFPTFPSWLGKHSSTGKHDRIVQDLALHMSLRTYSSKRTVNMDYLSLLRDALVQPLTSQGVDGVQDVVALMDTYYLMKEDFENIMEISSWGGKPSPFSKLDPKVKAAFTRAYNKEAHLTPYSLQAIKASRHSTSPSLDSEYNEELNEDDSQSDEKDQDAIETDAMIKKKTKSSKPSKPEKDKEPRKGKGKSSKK

Some of the results follow.
What follows are targets tested with Cc1cc(Nc2cc(CN3CCOCC3)c3nc(C)c(Cc4ccc(Cl)cc4F)n3n2)n[nH]1 [gandotinib] (assay: log2 fold change, soluble protein after heating vs DMSO (PISA); higher = thermal stabilisation; K562 cells, 10 uM, 30 min; active = over 0.2 and 3.5 SD of the protein, either way, in both replicates (recomputed)).
Method in brief: (§1)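 Aliquots of K562 cells (2×10^6 cells/mL) treated with 10 μM compound for 30 min were heated for 3 min over 48°C-58°C. After pooling and extraction in PBS with 0.5% NP-40 at 4°C, soluble protein from a 21,000xg, 90 min spin was quantified by TMTpro 16plex LC-MS/MS with channel sums equalised. Thermal stability is expressed against control samples, from duplicates, as a log2 fold change.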
In the case of RBP1 isoform 3 (UniProt P09455), the log2 fold change is reported as inactive: 0.61.
RICTOR isoform 3 (UniProt Q6R327) was tested, and the log2 fold change was inactive: -0.015.
With RLIM (UniProt Q9NVW2) the log2 fold change was inactive: 0.304.
RNASEL (UniProt Q05823) was tested, and the log2 fold change was inactive: 0.315.
RNF185 (UniProt Q96GF1) was tested, and the log2 fold change was inactive: 0.104.
In the case of RFXANK (UniProt O14593), the log2 fold change is reported as inactive: -0.018.
For RGS14 (UniProt O43566), the log2 fold change was inactive: 0.023.
For RNF169 (UniProt Q8NCN4), the log2 fold change was inactive: -0.196.
For RCE1 (UniProt Q9Y256), the log2 fold change was inactive: -0.03.
In the case of RBMY1E (UniProt A6NEQ0), the log2 fold change is reported as inactive: -0.137.
RIT1 isoform 3 (UniProt Q92963) was tested, and the log2 fold change was inactive: -0.016.
For RNF170 (UniProt Q96K19), the log2 fold change was inactive: -0.108.
RNF24 isoform 2 (UniProt Q9Y225) was tested, and the log2 fold change was inactive: -0.055.
RINT1 (UniProt Q6NUQ1) was tested, and the log2 fold change was inactive: -0.061.
With RIOX1 (UniProt Q9H6W3) the log2 fold change was inactive: 0.168.
For RHBDD2 isoform 2 (UniProt Q6NTF9), the log2 fold change was inactive: 0.334.
In the case of RNF111 isoform 3 (UniProt Q6ZNA4), the log2 fold change is reported as inactive: 0.054.
For RNF166 (UniProt Q96A37), the log2 fold change was inactive: -0.029.
With RECQL5 (UniProt O94762) the log2 fold change was inactive: -0.007.
In the case of RBP4 (UniProt P02753), the log2 fold change is reported as inactive: -0.29.
For RC3H2 (UniProt Q9HBD1), the log2 fold change was inactive: 0.025.
With RFC1 (UniProt P35251) the log2 fold change was inactive: -0.122.
RIF1 (UniProt Q5UIP0) was tested, and the log2 fold change was inactive: -0.053.
With RGCC (UniProt Q9H4X1) the log2 fold change was inactive: 0.089.

These targets were tested with Cc1cc(Nc2cc(N3CCN(C)CC3)nc(Sc3ccc(NC(=O)C4CC4)cc3)n2)n[nH]1 [tozasertib] in the same assay as above.
Method in brief: as §1
With RLIM (UniProt Q9NVW2) the log2 fold change was inactive: -0.233.
For RGS14 (UniProt O43566), the log2 fold change was inactive: -0.239.
RMI2 (UniProt Q96E14) was tested, and the log2 fold change was inactive: 0.069.
In the case of RNF169 (UniProt Q8NCN4), the log2 fold change is reported as inactive: 0.001.
RGP1 (UniProt Q92546) was tested, and the log2 fold change was inactive: -0.104.
In the case of RCL1 (UniProt Q5VZU2), the log2 fold change is reported as inactive: 0.085.
RIPOR1 isoform 4 (UniProt Q6ZS17) was tested, and the log2 fold change was inactive: -0.005.
In the case of RCE1 (UniProt Q9Y256), the log2 fold change is reported as inactive: 0.132.
For RINT1 (UniProt Q6NUQ1), the log2 fold change was inactive: 0.059.
In the case of RGN (UniProt Q15493), the log2 fold change is reported as inactive: -0.163.
RNF166 (UniProt Q96A37) was tested, and the log2 fold change was inactive: -0.082.
In the case of RBP4 (UniProt P02753), the log2 fold change is reported as inactive: -0.102.
In the case of RC3H2 (UniProt Q9HBD1), the log2 fold change is reported as inactive: 0.021.
RHD (UniProt Q02161) was tested, and the log2 fold change was inactive: 0.012.
In the case of RFC1 (UniProt P35251), the log2 fold change is reported as inactive: -0.152.
For RIF1 (UniProt Q5UIP0), the log2 fold change was inactive: -0.061.
RNF168 (UniProt Q8IYW5) was tested, and the log2 fold change was inactive: 0.013.

What follows are targets tested with Cc1cc(SCc2sc(-c3ccc(C(F)(F)F)cc3)nc2C)ccc1OCC(=O)O in the same assay as above.
Method in brief: as §1
RBP1 isoform 3 (UniProt P09455) was tested, and the log2 fold change was inactive: -0.293.
For RICTOR isoform 3 (UniProt Q6R327), the log2 fold change was inactive: -0.072.
With RLIM (UniProt Q9NVW2) the log2 fold change was inactive: -0.085.
RMI2 (UniProt Q96E14) was tested, and the log2 fold change was inactive: 0.098.
With RNF169 (UniProt Q8NCN4) the log2 fold change was inactive: 0.221.
With RCL1 (UniProt Q5VZU2) the log2 fold change was inactive: 0.044.
With RCE1 (UniProt Q9Y256) the log2 fold change was inactive: -0.003.
In the case of RNF170 (UniProt Q96K19), the log2 fold change is reported as inactive: -0.109.
With RFX7 (UniProt Q2KHR2) the log2 fold change was inactive: -0.072.
With RNF24 isoform 2 (UniProt Q9Y225) the log2 fold change was inactive: 0.136.
With RINT1 (UniProt Q6NUQ1) the log2 fold change was inactive: 0.085.
In the case of RHBDD2 isoform 2 (UniProt Q6NTF9), the log2 fold change is reported as inactive: -0.083.
With RNF166 (UniProt Q96A37) the log2 fold change was inactive: -0.018.
RECQL5 (UniProt O94762) was tested, and the log2 fold change was inactive: -0.045.
RBP4 (UniProt P02753) was tested, and the log2 fold change was inactive: -0.738.
In the case of RFC1 (UniProt P35251), the log2 fold change is reported as inactive: 0.212.
RIF1 (UniProt Q5UIP0) was tested, and the log2 fold change was inactive: 0.156.
RNF168 (UniProt Q8IYW5) was tested, and the log2 fold change was inactive: 0.04.
RCBTB1 (UniProt Q8NDN9) was tested, and the log2 fold change was inactive: 0.175.

These targets were tested with Cc1ccc(-n2nc(C(C)(C)C)cc2NC(=O)Nc2ccc(OCCN3CCOCC3)c3ccccc23)cc1 [doramapimod] in the same assay as above.
Method in brief: as §1
In the case of RNF11 (UniProt Q9Y3C5), the log2 fold change is reported as inactive: -0.087.
RIC8B isoform 1 (UniProt Q9NVN3) was tested, and the log2 fold change was inactive: 0.006.
For RIPOR1 isoform 4 (UniProt Q6ZS17), the log2 fold change was inactive: 0.081.
For RBMY1E (UniProt A6NEQ0), the log2 fold change was inactive: -0.007.
For RIT1 isoform 3 (UniProt Q92963), the log2 fold change was inactive: -0.009.
RNF170 (UniProt Q96K19) was tested, and the log2 fold change was inactive: 0.141.
For RNF24 isoform 2 (UniProt Q9Y225), the log2 fold change was inactive: 0.068.
With RINT1 (UniProt Q6NUQ1) the log2 fold change was inactive: 0.146.
With RHBDD2 isoform 2 (UniProt Q6NTF9) the log2 fold change was inactive: 0.037.
For RNF111 isoform 3 (UniProt Q6ZNA4), the log2 fold change was inactive: -0.065.
In the case of RNF130 (UniProt Q86XS8), the log2 fold change is reported as inactive: -0.326.
For RBP4 (UniProt P02753), the log2 fold change was inactive: 0.153.
With RHD (UniProt Q02161) the log2 fold change was inactive: 0.
For RMDN2 isoform 2 (UniProt Q96LZ7), the log2 fold change was inactive: 0.145.
